Measurements: article PMC6206164, “Fibroblast Growth Factor Binding Protein 3 (FGFBP3) impacts carbohydrate and lipid metabolism” (Scientific Reports, 2018)
These are yes or no findings as the source states them, for the method shown. Some results given as binding are weak or reduced against the parent protein; the word gives no strength.

Key:
[1] = target: T1, Recombinant FGF15 (mouse) (UniProt O35622); assay: ELISA; direct ELISA; FGF coated on the plate (7.5 μg/ml, overnight 4 °C); MBP-tagged protein at a fixed concentration (0.7 nM), 2 h room temperature; detection with anti-MBP antibody; PBST washes; both purified
T1 sequence: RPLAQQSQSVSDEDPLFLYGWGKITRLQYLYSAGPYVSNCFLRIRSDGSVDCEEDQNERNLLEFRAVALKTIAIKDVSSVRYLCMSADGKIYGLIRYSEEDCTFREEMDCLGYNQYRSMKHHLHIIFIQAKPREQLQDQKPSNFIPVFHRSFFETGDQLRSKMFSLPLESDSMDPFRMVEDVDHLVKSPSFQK

[2] = target: T2, Recombinant human FGF23 (human) (UniProt Q9GZV9); assay: as above
T2 sequence: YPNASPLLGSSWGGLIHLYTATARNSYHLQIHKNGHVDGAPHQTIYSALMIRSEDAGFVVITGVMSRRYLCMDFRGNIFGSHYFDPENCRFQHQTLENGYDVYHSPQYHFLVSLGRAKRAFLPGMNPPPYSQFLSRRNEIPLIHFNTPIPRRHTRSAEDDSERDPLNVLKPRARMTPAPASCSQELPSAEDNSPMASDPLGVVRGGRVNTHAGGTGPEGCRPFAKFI

binding [1]: binds
binding [2]: binds
B1: MBP-tagged human recombinant BP3 devoid of its signal peptide (natural protein, UniProt Q8TAT2 27-258, looked up)
chain: RREKGAASNVAEPVPGPTGGSSGRFLSPEQHACSWQLLLPAPEAAAGSELALRCQSPDGARHQCAYRGHPERCAAYAARRAHFWKQVLGGLRKKRRPCHDPAPLQARLCAGKKGHGAELRLVPRASPPARPTVAGFAGESKPRARNRGRTRERASGPAAGTPPPQSAPPKENPSERKTNEGKRKAALVPNEERPMGTGPDPDGLDGNAELTETYCAEKWHSLCNFFVNFWNG
notes: also called FGFBP3
